Data: PubChem BioAssay AID662 (National Center for Advancing Translational Sciences (NCATS), 2007)
Some of the results follow. These are further read-outs of the screen, such as a control signal, another cell line or another target. No call is given for them. Compounds called inactive in the main read-out are mostly missing here. The note in brackets gives the kind of curve behind each potency; many fits are weak.

Assay: Cell signaling CRE-BLA (Fsk stim)
Conditions: CHO CRE-bla reporter (cAMP response element driving beta-lactamase), forskolin EC10, beta-lactamase ratio; measured here: 460 nm blue channel
Method in brief: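 AC50 values, positive or negative, reflect shifts in EC10 NKH 477-induced CRE-bla reporter activity in CHO cells. Incubation lasted 3 h at 37 °C before CCF4 substrate (2 h, room temperature) and ratiometric 460/530 nm reading.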

Compound	AC50
O=C(Nc1cccc(-c2nc3ccccc3[nH]2)c1)c1ccco1	2.51 µM [rising, full curve, poor fit]
CC(=O)NC12CC3CC(C1)CC(C(=O)OCC(=O)NC(=O)c1cccn1C)(C3)C2	5.01 µM [falling, single point]
CCOC(=O)c1cc(CC)sc1NC(=O)COC	10 µM [falling, partial curve]
Cc1cccc(CNc2ccnc(-c3ccc(N(C)C)cc3)n2)c1	12.6 µM [rising, partial curve]
CN(C)c1ncc2nc(-c3cccc(C#N)c3)c(=O)n(CCC#N)c2n1	20 µM [rising, single point]
Cc1cc(C)c(NC(=O)CSc2nnc(-c3ccco3)n2N)c(C)c1	10 µM [falling, partial curve]
CC(=O)Nc1ccc(NC(=O)c2ccccc2F)cc1	0.0631 µM [rising, full curve]
CCN1CCN(C(c2cccs2)C(C)NS(=O)(=O)c2ccc(Br)cc2)CC1 (centres undefined)	31.6 µM [falling, single point]
CCOc1ccc(CCNC(=O)C(CC)n2nc(C)n3c(cc4sccc43)c2=O)cc1OCC (centres undefined)	5.01 µM [falling, partial curve, poor fit]
CC(C)Cn1c(-c2cccs2)nc2nc3ccccc3nc21	10 µM [rising, partial curve]
Cc1cc(NCc2ccco2)nc2cc(O)ccc12	12.6 µM [rising, partial curve]
CCOC(=O)N1CCN(C(=O)c2ccc3nc4ccc(Cl)cc4c(=O)n3c2)CC1	1.26 µM [rising, full curve]
Cc1ccc(S(=O)(=O)N2CCN(C(=O)C3CCCCC3)CC2)cc1	7.94 µM [falling, partial curve]
Cc1cc(Nc2ccc(Br)cc2F)n2nc(C)nc2n1	10 µM [rising, single point]
CCN(CC)S(=O)(=O)c1cc(C)c(C)cc1Br	0.126 µM [falling, full curve]
COCCn1c(SCc2nnc(-c3ccccc3)o2)nc2sc3c(c2c1=O)CCC3	3.16 µM [rising, partial curve]
CN1C(=O)c2cccc(NCCCN3C(=O)c4ccccc4C3=O)c2C1=O	12.6 µM [rising, single point]
Cc1nnc(SCc2nc3ccccc3s2)n1-c1ccccc1	15.8 µM [rising, partial curve]
CC(C)Nc1nc(NC(C)C)nc(N(C)C#N)n1	12.6 µM [rising, partial curve]

Part of the list above in a different format.
Compound | AC50
CCOC(=O)c1cc(CC)sc1NC(=O)COC | 10 µM [falling, partial curve]
Cc1ccc(S(=O)(=O)N2CCN(C(=O)C3CCCCC3)CC2)cc1 | 7.94 µM [falling, partial curve]
